Taken from: PubChem BioAssay AID743121 (NCATS, 2013)
The whole screen tested about 26,000 reagents; shown is a random part of them. Of all reagents, 167 (0.63%) were called active. 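Calls are per gene from RSA p-values that are not deposited; an individual active-marked siRNA can sensitise only weakly.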 Further read-outs or replicates are left out here. Reagent sequences are not shown.

Purpose: 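Partners whose loss is lethal together with topoisomerase I blockade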 (primary screen)
System: MDA-MB-231 cells, a human breast cancer line
Reagent: single siRNA against human genes, 20 nM siRNA (0.8 pmol per well)
Duration: 120 h (drug added 48 h after transfection, read 72 h later)
Challenge: camptothecin 20 nM (about EC30) for 72 h; vehicle 0.1% DMSO in parallel plates
Measurement: 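CellTiter-Glo ATP signal, scaled to control siRNA as percent viability; sensitisation given as log2 of untreated divided by camptothecin-treated viability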
Direction: log2 vehicle/camptothecin viability: higher = stronger sensitisation to camptothecin
Rule for the call: 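Each gene scored by redundant siRNA activity (RSA) over its individual siRNA ratios; a gene is called active at p < 0.001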

For GPR148 [SID164659275], the values are log2 vehicle/camptothecin viability 0.804; inactive. GPR148 [SID164659276] gave log2 vehicle/camptothecin viability -0.276; inactive. Depletion of GPR148 [SID164659278] resulted in: log2 vehicle/camptothecin viability 0.12; inactive. With knock-down of GPR148 [SID164659279], the record shows log2 vehicle/camptothecin viability -0.16; inactive. Against PCSK1N [SID164463716], the entry reads log2 vehicle/camptothecin viability -0.255; inactive. For PCSK1N [SID164463717] the deposit lists log2 vehicle/camptothecin viability -0.000447; inactive.

For PCSK1N [SID164463720], the values are log2 vehicle/camptothecin viability -0.329; inactive. MAPK1 [SID164382707] scored log2 vehicle/camptothecin viability -0.2; inactive. With knock-down of MAPK1 [SID164382708], the record shows log2 vehicle/camptothecin viability -0.559; inactive. MAPK1 [SID164382711] scored log2 vehicle/camptothecin viability -0.0308; inactive. For MAPK1 [SID164382713], the entry reads log2 vehicle/camptothecin viability 1.16; inactive. MAST1 [SID164444793] scored log2 vehicle/camptothecin viability -0.504; inactive.

For MAST1 [SID164444798], the entry reads log2 vehicle/camptothecin viability 0.038; inactive. For MAST1 [SID164444799] the deposit lists log2 vehicle/camptothecin viability -0.339; inactive. MAST1 [SID164444800] scored log2 vehicle/camptothecin viability -0.0143; inactive. Silencing of ITSN2 [SID164470064] came out at: log2 vehicle/camptothecin viability -0.0894; inactive. Knock-down of ITSN2 [SID164470065] resulted in: log2 vehicle/camptothecin viability 0.359; inactive. After knock-down of ITSN2 [SID164470068], the screen gave log2 vehicle/camptothecin viability -0.19; inactive.

Knock-down of ITSN2 [SID164470072] gave: log2 vehicle/camptothecin viability 0.108; inactive. For TH [SID164391701], the values are log2 vehicle/camptothecin viability -0.536; inactive. TH [SID164391703] showed log2 vehicle/camptothecin viability 0.0545; inactive. After knock-down of TH [SID164391704], the screen gave log2 vehicle/camptothecin viability -0.467; inactive. TH [SID164391706] showed log2 vehicle/camptothecin viability -0.365; inactive. CCR4 [SID164358876] scored log2 vehicle/camptothecin viability -0.263; inactive.

CCR4 [SID164358878] scored log2 vehicle/camptothecin viability -0.135; inactive. With knock-down of CCR4 [SID164358879], the screen gave log2 vehicle/camptothecin viability 0.043; inactive. Depletion of CCR4 [SID164358881] resulted in: log2 vehicle/camptothecin viability 0.214; inactive.
